The target of experiment [1] is T1, GST-GIV-CT (aa 1660-1870; mammalian p-CEFL vector) (UniProt Q3V6T2).
T1 sequence: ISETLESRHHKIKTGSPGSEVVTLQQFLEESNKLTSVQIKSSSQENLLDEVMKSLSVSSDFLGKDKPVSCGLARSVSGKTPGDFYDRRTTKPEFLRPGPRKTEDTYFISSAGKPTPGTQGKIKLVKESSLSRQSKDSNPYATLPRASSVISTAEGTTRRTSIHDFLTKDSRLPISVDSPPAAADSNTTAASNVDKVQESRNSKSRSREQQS
Kind of experiment: pull-down.

Protein sequences, listed by entry. Tags and fused reporters are not part of them. Lines headed by an entry give the natural chain unless they say otherwise; changes in a name come on top.
UniProt Q9HC29, whole entry: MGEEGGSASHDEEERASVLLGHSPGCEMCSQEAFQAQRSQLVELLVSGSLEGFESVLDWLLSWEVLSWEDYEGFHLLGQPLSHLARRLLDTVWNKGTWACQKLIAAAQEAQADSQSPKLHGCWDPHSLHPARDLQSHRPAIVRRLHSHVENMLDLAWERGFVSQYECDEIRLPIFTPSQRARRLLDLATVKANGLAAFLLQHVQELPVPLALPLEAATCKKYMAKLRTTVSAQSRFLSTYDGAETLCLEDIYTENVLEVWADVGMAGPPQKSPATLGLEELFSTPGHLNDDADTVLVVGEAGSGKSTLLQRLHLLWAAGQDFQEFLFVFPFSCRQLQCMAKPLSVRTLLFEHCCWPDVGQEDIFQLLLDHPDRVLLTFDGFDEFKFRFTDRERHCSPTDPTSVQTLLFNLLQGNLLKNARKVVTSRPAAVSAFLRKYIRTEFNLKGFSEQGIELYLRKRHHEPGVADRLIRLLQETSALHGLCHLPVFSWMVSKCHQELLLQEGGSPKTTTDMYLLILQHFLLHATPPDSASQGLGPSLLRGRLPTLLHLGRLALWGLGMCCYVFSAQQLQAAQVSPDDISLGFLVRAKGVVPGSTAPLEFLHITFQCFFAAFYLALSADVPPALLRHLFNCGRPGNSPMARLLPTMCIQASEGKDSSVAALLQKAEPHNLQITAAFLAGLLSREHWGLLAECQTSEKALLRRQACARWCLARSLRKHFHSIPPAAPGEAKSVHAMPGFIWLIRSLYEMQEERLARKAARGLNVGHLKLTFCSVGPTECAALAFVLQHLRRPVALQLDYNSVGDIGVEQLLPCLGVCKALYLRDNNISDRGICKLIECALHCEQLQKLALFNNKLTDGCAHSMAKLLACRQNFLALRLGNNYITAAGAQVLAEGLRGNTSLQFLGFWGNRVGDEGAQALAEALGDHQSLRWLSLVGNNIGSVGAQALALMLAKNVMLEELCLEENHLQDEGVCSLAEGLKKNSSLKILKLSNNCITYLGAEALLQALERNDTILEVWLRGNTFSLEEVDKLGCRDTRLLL

In experiment [2] the target is GIV-FLAG (C-terminal FLAG-tagged GIV full length protein) (UniProt Q3V6T2). The experiment is described as follows: co-IP.
The target in experiment [3] is HA-NOD2 (N-terminal HA-tagged NOD2 full length protein, wild type) (UniProt Q9HC29). Kind of experiment: co-IP.

Results are given in words; binding and its absence hold for the method and conditions named. In cells and extracts the contact can be indirect. Some entries that bind do so weakly or less than the wild type. For some of these results: Where a sequence is shown, tags or fusion partners need not be part of it.

With “HA-NOD2 (N-terminal HA-tagged NOD2 full length protein, wild type) (from UniProt Q9HC29 1-1040)”, the binding entry in experiment [1], in experiment [2] and in experiment [3] was “binds” throughout.

Take “HA-NOD2 G908R (from UniProt Q9HC29 1-1040)”: in experiment [1], the binding entry was “binds”.

Source of the values: paper doi:10.1101/2022.04.26.489574.
